# Experimental data taken from PubChem BioAssay AID493014 (National Center for Advancing Translational Sciences (NCATS), 2011).
# Some of the results follow. Further columns of the screen follow, without active or inactive calls. The list favours compounds with an active or inconclusive main result. The note in brackets gives the kind of curve behind each potency; many fits are weak.
# Experiment: qHTS Assay to Find Inhibitors of Chronic Active B-Cell Receptor Signaling
# Conditions: ABC-DLBCL IkBa-CBG/CBR reporter, luminescence ratio (green luciferase fused to IkBa over red control in TMD8 lymphoma cells), 4 h
# Method in brief: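 Doxycycline induced both beetle luciferases in TMD8 lymphoma cells; IKK-driven degradation limits the IkappaBalpha-fused green signal, while red luminescence normalises for cell number and nonspecific effects. Compounds tested up to 46 uM, 4 hrs.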
# [1] = measured here: CBR red luminescence, cell number
# [2] = measured here: IkBa-CBG green luminescence
SMILES,AC50 [1],AC50 [2]
O=C(c1cccs1)N1N=C(c2ccc(O)cc2)CC1c1ccccc1 (centres undefined),"20.6 µM [falling, partial curve]",–
C/C(=N/NC(=O)C1CCN(S(=O)(=O)c2ccc(C)cc2)CC1)c1cccc([N+](=O)[O-])c1,"6.51 µM [rising, single point]",–
CCCc1nc(NC(=O)c2ccccc2)nc(NC(=O)c2ccccc2)n1,"0.794 µM [falling, full curve, poor fit]",–
Cc1ccc2c(CN(C)Cc3ccccc3)cc(=O)oc2c1C,"17.8 µM [falling, partial curve]",–
Cc1c(C(=O)N(C)c2ccccc2Cl)cnn1-c1ccccc1,"0.794 µM [rising, full curve, poor fit]",–
COc1ccc(-c2nc(-c3cccs3)no2)cc1,"10 µM [falling, single point]",–
Cc1ccc(N(C(=O)Cc2c[nH]c3ccccc23)C(C(=O)NC2CCCCC2)c2ccco2)cc1 (centres undefined),"18.4 µM [falling, partial curve, poor fit]",–
Cc1cc(NC(=S)N(Cc2cccc(Br)c2)CC2CCC(C(=O)O)CC2)ccc1Cl (centres undefined),"2.82 µM [falling, full curve]",–
CCn1c2ccccc2c2nc3cc(OC)c(OC)cc3nc21,"4.47 µM [rising, full curve]",–
COc1cc(/C=N/N=C(\N)c2nonc2N)cc(OC)c1OC,"3.55 µM [rising, partial curve, poor fit]",–
O=[N+]([O-])c1cc(F)c(N2CCOCC2)cc1N1CCCCC1,"15.8 µM [rising, partial curve, poor fit]",–
CCOC(=O)CCCNC(=O)COC(=O)c1cc(C)cc(C)c1,"25.9 µM [falling, single point]",–
CCc1ccc(-n2nnnc2SCC(=O)NNC(=O)c2ccco2)cc1,"35.5 µM [rising, single point]",–
CCOC(=O)c1ccc(N2C(=O)C(CC(=O)NC)N(CCc3ccc(OC)c(OC)c3)C2=S)cc1 (centres undefined),"11.2 µM [falling, partial curve]",–
CCOc1ccc(-c2ccc(SC)nn2)cc1,"3.98 µM [falling, full curve]",–
C#CCOCCOCCOCCNc1nc(N2CCN(C(=O)CCCCCCCCCCNC(=O)Cn3cc(C[C@@H](C)O)nn3)CC2)nc(N2CCN(C(=O)CCCCCCCCCCNC(=O)[C@@H](CCSC)n3cc(CCO)nn3)CC2)n1,"9.2 µM [rising, partial curve]",–
Nc1cc2nn(-c3ccccc3)nc2cc1Cl,"11.2 µM [falling, single point]",–
CCCc1cc(-c2n[nH]c(C(=O)OCC)c2-c2cscn2)c(O)cc1O,"0.282 µM [falling, full curve]",–
Cc1cc(C)cc(NC(=O)c2ccc(N3C(=O)C4CCCCC4C3=O)cc2)c1 (centres undefined),"11.2 µM [falling, partial curve, poor fit]",–
COc1cccc2c1C(CO)N1C(C#N)C3CC(C(=O)O)C(C1C2)N3C (centres undefined),"1.41 µM [falling, full curve]","0.355 µM [rising, full curve, poor fit]"
CCn1c(=O)c(C(=O)Nc2ccccc2S(N)(=O)=O)c(O)c2ccccc21,"5.01 µM [falling, partial curve]",–
COc1cc(C(=O)N2CCN(c3cc(Cl)ccc3Cl)CC2)cc(OC)c1OC,–,"0.92 µM [falling, full curve]"

SMILES,AC50 [1],AC50 [2]
O=C(N1CCCCC1)N1CCN(C(=O)N2CCCCC2)CC1,"3.98 µM [rising, full curve, poor fit]",–
CC(C)c1ccc(NC(=S)N2CCCC2)cc1,"10 µM [rising, partial curve]",–
O=C1CC(N(CCc2ccccc2)C(=S)Nc2ccccc2)C(=O)N1c1ccccc1 (centres undefined),"29.1 µM [falling, single point]",–
CCOC(=O)c1sc2nc(CC(=O)OC)nc(NCC(=O)OC)c2c1C,"0.282 µM [falling, full curve, poor fit]",–
CCC1CCCN1Cn1cnc2c([nH]c3ccc(Cl)cc32)c1=O (centres undefined),"8.2 µM [falling, partial curve, poor fit]",–
O=C(Nc1scc(-c2cccs2)c1C(=O)O)c1cccs1,"17.8 µM [falling, single point]",–
CCCn1cnc2c(sc3nc4c(cc32)CSC(C)(C)C4)c1=O,"29.1 µM [rising, single point]",–
Cc1onc(-c2ccccc2)c1C(=O)N/N=C/c1c[nH]c2ccccc12,"0.631 µM [falling, full curve, poor fit]","3.98 µM [rising, partial curve, poor fit]"
C=C1CCC[C@]2(C)C[C@H]3OC(=O)C(CNCCN(CC)CC)[C@H]3CC12 (some centres undefined),"15.8 µM [falling, partial curve]",–
CNC(=O)NC(=O)C(C)Oc1ccccc1F (centres undefined),"35.5 µM [falling, single point]",–
CCSc1nnc(NC(=O)COc2ccccc2[N+](=O)[O-])s1,"28.2 µM [falling, single point]",–
C=CCn1c(SCCCC)nc(O)cc1=O,"6.51 µM [rising, single point]",–
CSCCC(NC(=O)c1ccco1)C(=O)Nc1ccc(C)cn1 (centres undefined),"1.3 µM [rising, full curve, poor fit]",–
COc1ccc(-c2nc3scc(CCNS(=O)(=O)c4ccc(Oc5ccccc5)cc4)n3n2)cc1,"17.8 µM [rising, single point]",–
COc1ccc(Cc2noc(CN(C)CCc3ccccc3)n2)cc1OC,"25.1 µM [falling, single point]",–
CCC(=O)N1c2ccc(S(=O)(=O)CCC(=O)NCc3cccs3)cc2CC1C (centres undefined),"23.1 µM [rising, single point]",–
CCOc1ccc(C(=O)Cc2cc3cccc(OC)c3oc2=O)cc1,"5.01 µM [falling, full curve, poor fit]",–
COc1ccc(C2=CC(=O)C=CC2=O)cc1,"17.8 µM [falling, single point]",–
COc1ccc(-n2cc(CNC3CCC(O)CC3)c(-c3cccc(F)c3)n2)cc1 (centres undefined),"10 µM [falling, partial curve]",–
Cc1cc(C(=O)NCc2ccco2)cs1,"10.3 µM [rising, partial curve, poor fit]",–
O=C(CN1CCCCC1)Nc1cc(Cl)ccc1Oc1ccccc1,"12.6 µM [rising, partial curve, poor fit]",–
CC1(C)Cc2ccccc2-c2nnc(-c3ccco3)n21,"16.4 µM [falling, single point]",–

# Molecules above that contain four or more nitrogen atoms (11):
SMILES,AC50 [1],AC50 [2]
C/C(=N/NC(=O)C1CCN(S(=O)(=O)c2ccc(C)cc2)CC1)c1cccc([N+](=O)[O-])c1,"6.51 µM [rising, single point]",–
CCCc1nc(NC(=O)c2ccccc2)nc(NC(=O)c2ccccc2)n1,"0.794 µM [falling, full curve, poor fit]",–
COc1cc(/C=N/N=C(\N)c2nonc2N)cc(OC)c1OC,"3.55 µM [rising, partial curve, poor fit]",–
CCc1ccc(-n2nnnc2SCC(=O)NNC(=O)c2ccco2)cc1,"35.5 µM [rising, single point]",–
C#CCOCCOCCOCCNc1nc(N2CCN(C(=O)CCCCCCCCCCNC(=O)Cn3cc(C[C@@H](C)O)nn3)CC2)nc(N2CCN(C(=O)CCCCCCCCCCNC(=O)[C@@H](CCSC)n3cc(CCO)nn3)CC2)n1,"9.2 µM [rising, partial curve]",–
Nc1cc2nn(-c3ccccc3)nc2cc1Cl,"11.2 µM [falling, single point]",–
O=C(N1CCCCC1)N1CCN(C(=O)N2CCCCC2)CC1,"3.98 µM [rising, full curve, poor fit]",–
CCC1CCCN1Cn1cnc2c([nH]c3ccc(Cl)cc32)c1=O (centres undefined),"8.2 µM [falling, partial curve, poor fit]",–
Cc1onc(-c2ccccc2)c1C(=O)N/N=C/c1c[nH]c2ccccc12,"0.631 µM [falling, full curve, poor fit]","3.98 µM [rising, partial curve, poor fit]"
CCSc1nnc(NC(=O)COc2ccccc2[N+](=O)[O-])s1,"28.2 µM [falling, single point]",–
COc1ccc(-c2nc3scc(CCNS(=O)(=O)c4ccc(Oc5ccccc5)cc4)n3n2)cc1,"17.8 µM [rising, single point]",–

# Reformatted with tabs: 2 of the compounds above
SMILES	AC50 [1]	AC50 [2]
C/C(=N/NC(=O)C1CCN(S(=O)(=O)c2ccc(C)cc2)CC1)c1cccc([N+](=O)[O-])c1	6.51 µM [rising, single point]	–
C#CCOCCOCCOCCNc1nc(N2CCN(C(=O)CCCCCCCCCCNC(=O)Cn3cc(C[C@@H](C)O)nn3)CC2)nc(N2CCN(C(=O)CCCCCCCCCCNC(=O)[C@@H](CCSC)n3cc(CCO)nn3)CC2)n1	9.2 µM [rising, partial curve]	–

# (cont.)

SMILES,AC50 [1],AC50 [2]
Cc1cc2cc(CNC(=O)c3ccco3)ccc2n1C,"2.51 µM [rising, partial curve]",–
Cc1ccc(-n2[nH]c(C)c(C=Nc3ccc(S(=O)(=O)Nc4nc(C)cc(C)n4)cc3)c2=O)c(C)c1,"29.1 µM [rising, single point]",–
CC1CCN(c2ccc(-c3ccc(NC(=O)C(F)(F)F)cc3)nn2)CC1,"3.16 µM [falling, full curve, poor fit]",–
Cc1cccc(C)c1NC(=O)c1ccc([N+](=O)[O-])s1,"18.4 µM [falling, partial curve, poor fit]",–
Cc1nc(-c2ccc(C(=O)N3CCCC3)cc2)cs1,"35.5 µM [falling, single point]",–
O=C(/C=C/c1ccco1)Nc1nc(-c2ccccn2)cs1,"12.6 µM [falling, single point]","11.2 µM [rising, partial curve, poor fit]"
Cc1nnc(C)n1/N=C/c1cccn1C,"0.82 µM [rising, full curve, poor fit]",–
NC(=O)c1ccsc1NC(=O)CCc1ccccc1,"7.94 µM [falling, partial curve]",–
COc1ccc(/C=C2\SC(=O)N(CCC(=O)N3CCCCC3CCO)C2=O)cc1 (centres undefined),"5.01 µM [falling, partial curve]",–
c1ccc(-n2nnc3c(N4CCOCC4)ncnc32)cc1,"20 µM [falling, single point]",–
CSc1nc(Nc2ccc(Cl)cc2)c(C#N)c(=O)[nH]1,"35.5 µM [rising, partial curve, poor fit]",–
O=C(Nc1ccc2c(c1)OCCO2)c1ccc(Br)s1,"11.6 µM [falling, partial curve, poor fit]",–
COc1ncccc1-c1nnn(-c2ccc(C)cc2)n1,"35.5 µM [falling, single point]",–
Cc1ccc(Cl)cc1N1CCN(C(=O)c2ccc(CS(=O)c3ccccc3)o2)CC1 (centres undefined),"35.5 µM [falling, single point]",–
COc1ccc(C(=O)Nc2ccc(CN3CCOCC3)cc2)cc1,"6.51 µM [rising, single point]",–
CCOC(=O)C1CCN(c2ccccc2CN2CCN(c3ccccc3OCC)CC2)CC1,"12.6 µM [rising, single point]",–
Cc1ccccc1Cn1nnc(-c2ccc(C(=O)O)cc2)n1,"28.2 µM [falling, single point]",–
COc1ccc(CNC(=O)C(c2ccco2)N(C(=O)c2ccccn2)c2ccccc2)cc1 (centres undefined),"8.91 µM [falling, partial curve, poor fit]",–
CC(C)C(NC(=O)c1ccc(C(C)(C)C)cc1)C(=O)NC1=NCCS1 (centres undefined),"29.1 µM [falling, single point]",–
COc1cc(COc2ccc(-c3nnco3)cc2)ccc1OC(F)F,"5.62 µM [rising, partial curve]",–
Oc1c(Cl)cc(CN2CCCCC2)c2cccnc12,"7.08 µM [rising, full curve, poor fit]","15.8 µM [falling, single point]"
